Measured values taken from PubChem BioAssay AID1347076 (National Center for Advancing Translational Sciences (NCATS), 2019).
About 13,000 (3.2%) of roughly 400,000 compounds were called active. The inconclusive results got no clear call from the source; some entries with a clear call stand among them for comparison. The call rests on the fitted dose curve; in most records, active means well fitted cell-killing curve with a large enough effect; inconclusive means small, poorly fitted or top-dose-only effect, or effect the other way; inactive means flat fitted curve, though single readings scatter. A potency beside an inconclusive call is a rough fit, not a confirmed value.

Test: qHTS assay for MDR1-selective chemotherapeutics: Primary screen using the drug-selected MDR subline cells KB-V1; further: nearly all actives have a fitted effect of over 60% in size
Conditions: KB-V1 MDR cells viability, CellTiter-Glo, 72 h; activity change, negative = cytotoxicity: at 46.1 µM (top of the series)
Procedure, shortened: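 Cells of the MDR subline KB-V1 are plated, dosed with compound at multiple concentrations, and incubated 72 h at 37 degrees C; CellTiter-Glo is then added and luminescence read after 10 min.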
On the % scale 0 is the no-effect control and ±100 the full control effect; potency means the concentration at half of the fitted maximal effect.

Compound	Potency	activity change, negative = cytotoxicity
COc1ccc(NC(=O)Cn2c(=O)n(-c3ccc(OC)c(OC)c3)c(=O)c3ccccc32)cc1	inconclusive: 16.4 µM [rising, single point]	–
CCCS(=O)(=O)NC(=O)C1(C)CCN(C(=O)c2ccc(C(=O)OC)cc2)C1 (centres undefined)	inactive	–
CC1(C(=O)Nc2ccc3[nH]ncc3c2)CCN1C(=O)C1(c2ccccc2)CC1 (centres undefined)	inconclusive: 20.6 µM [cytotoxic, partial curve]	–
COc1cccc(CNC(=O)COC(=O)CN2C(=O)NC3(CCCCC3C)C2=O)c1 (centres undefined)	inconclusive: 29.1 µM [rising, single point]	–
Cc1cccc(OCCCC(=O)Nc2nc3ccccc3[nH]2)c1	active: 20.6 µM	–
O=C(NCC(=O)N(c1cccc(F)c1)C(C(=O)NC1CCCC1)c1ccco1)c1ccco1 (centres undefined)	inconclusive: 20.6 µM [cytotoxic, single point]	–
CCOC(=O)O[C@]1(C(=O)COC(=O)CC)CC[C@H]2[C@@H]3CCC4=CC(=O)C=C[C@]4(C)[C@H]3[C@@H](O)C[C@@]21C	inactive	–
Cc1ccc2nsnc2c1NC(=O)COc1ccccc1F	inconclusive: 29.1 µM [cytotoxic, partial curve, poor fit]	–
CC(=O)N1CCc2cc(Br)cc(S(=O)(=O)N3CCN(c4cccc(C(F)(F)F)c4)CC3)c21	inactive	–
CCOc1ccc(S(=O)(=O)Nc2cccc(C(=O)NCC3CCCO3)c2)cc1 (centres undefined)	inconclusive: 20.6 µM [cytotoxic, single point]	–
COc1ccc(OC)c(CNc2c(C=O)c(=O)[nH]c3ccccc23)c1	inconclusive: 13 µM [rising, partial curve]	–
O=C1N=C(N2CCc3ccccc3C2)S/C1=C\c1cccc(O)c1	inconclusive: 29.1 µM [cytotoxic, single point]	–
CC1CCN(S(=O)(=O)c2cn(CC(=O)N3CC(C)CC(C)C3)c(=O)c3ccccc23)CC1 (centres undefined)	active: 1.3 µM	–
COc1ccc(C2CC(=O)c3cc(-c4nc(-c5cccc(Cl)c5)cs4)c(=O)[nH]c3C2)cc1OC (centres undefined)	inactive	–
N#C/C(=C\c1cn(CCOc2ccccc2)c2ccccc12)C(=O)NCc1cccs1	inconclusive: 3.26 µM [cytotoxic, full curve, poor fit]	–
Clc1cc2cccnc2c2ccccc12	inactive	–
Cc1ccccc1NC(=O)C(C)OC(=O)C1CC(=O)N(Cc2ccco2)C1 (centres undefined)	inconclusive: 14.6 µM [rising, partial curve, poor fit]	–
O=C(c1ccc2ncsc2c1)N1CCN(c2ccccc2Cl)CC1	inconclusive: 16.4 µM [cytotoxic, partial curve, poor fit]	–
Cc1nc(NC(=O)c2ccccc2)sc1Cc1ccc2c(c1)OCO2	inconclusive: 18.4 µM [cytotoxic, single point]	–
CCOc1ccc(NC(=O)c2ccc(NC(=O)N3CCSc4ncccc43)cc2)cc1	inactive	–
CCc1n[nH]c(=S)n1/N=C/c1ccc(N(CC)CC)cc1	inconclusive: 18.4 µM [cytotoxic, single point]	–
CCC(=O)N1CCc2cc(Br)cc(S(=O)(=O)N3CCC(C(=O)NCCCOC(C)C)CC3)c21	inactive	–
COc1ccccc1N1CCN(S(=O)(=O)CCNC(=O)c2ccc(Br)o2)CC1	inconclusive: 20.6 µM [cytotoxic, partial curve]	–

Three compounds picked at random from the list so far:
Compound	Potency	activity change, negative = cytotoxicity
COc1ccc(C2CC(=O)c3cc(-c4nc(-c5cccc(Cl)c5)cs4)c(=O)[nH]c3C2)cc1OC (centres undefined)	inactive	–
Cc1cccc(OCCCC(=O)Nc2nc3ccccc3[nH]2)c1	active: 20.6 µM	–
Cc1nc(NC(=O)c2ccccc2)sc1Cc1ccc2c(c1)OCO2	inconclusive: 18.4 µM [cytotoxic, single point]	–

Remaining list, next part.

Compound	Potency	activity change, negative = cytotoxicity
COc1cc(OC)c(OC)cc1/C=C/c1nc2cc3ccccc3cc2c(=O)n1-c1ccc(Cl)cc1	inconclusive: 20.6 µM [cytotoxic, single point]	–
Fc1ccccc1-c1nc2nc3ccccc3nc2n1CC1CCCO1 (centres undefined)	inactive	–
Cc1ccc(Nc2c(-c3c[nH]c4ccccc34)nc3cc(C)ccn23)cc1	inactive	–
CSc1ncnc2c1ncn2CCCNCc1ccc2c(c1)OCO2	inconclusive: 25.9 µM [rising, single point]	–
Cc1ccc(-c2ccc(/C=N/NC(=O)Cc3nnc(N)s3)o2)cc1Cl	inactive	–
CC(=O)Nc1ccc(OC(=O)c2ccc(Br)c([N+](=O)[O-])c2)cc1	inactive	–
CCOC(=O)N1CCN(c2c(NCCCN3CCCC(C)C3)c(=O)c2=O)CC1 (centres undefined)	inconclusive: 2.31 µM [rising, partial curve, poor fit]	–
O=C(NCC(c1ccco1)N1CCN(c2ccc(F)cc2)CC1)c1ccco1 (centres undefined)	–	inconclusive: -8.96%
O=C(COc1ccc(Cl)cc1Cl)NNC(=S)Nc1ccc(F)cc1	active: 20.6 µM	–
COc1ccc(Br)cc1C=NNS(=O)(=O)c1ccc(C)cc1	inconclusive: 20.6 µM [cytotoxic, single point]	–
O=c1c2c3c(sc2nc(N2CCNCC2)n1CCc1ccccc1)CCCCC3	inactive	–
CN(C)S(=O)(=O)c1ccc(Cl)c(NC(=O)CSc2nnnn2-c2ccc(O)cc2)c1	inconclusive: 18.4 µM [cytotoxic, single point]	–
COc1ccc(/C=C2\CCC(C3CCCC3)C2=O)cc1Cn1nc(C)cc1C (centres undefined)	inconclusive: 9.2 µM [cytotoxic, partial curve]	–
O=C(Nc1cccc2ccccc12)c1ccc([N+](=O)[O-])cc1	inconclusive: 29.1 µM [cytotoxic, single point]	–
Cc1cccc(NC(=O)c2oc3ccccc3c2NC(=O)Cc2coc3c(C)c(C)ccc23)c1	inconclusive: 29.1 µM [rising, single point]	–
O=C(CCC1N=C2c3ccccc3N=C(SCc3ccc(F)cc3)N2C1=O)NCc1cccs1 (centres undefined)	inactive	–
CCOC(=O)c1sc(=S)n(-c2ccc(C)cc2)c1SC	inconclusive: 18.4 µM [cytotoxic, partial curve, poor fit]	–
Cc1ccc(Cl)cc1N1CCN(CC(O)COC(C)C)CC1 (centres undefined)	inactive	–
CCOC(=O)C1=C(CS(=O)(=O)c2cccc(C(F)(F)F)c2)NC(=O)NC1c1cccc(OC)c1 (centres undefined)	inactive	–
Nc1nccnc1C(=O)OCC(=O)NC1CCCc2ccccc21 (centres undefined)	inconclusive: 18.4 µM [rising, single point]	–
CC1(C)CC2(CC(c3ccccc3F)c3cc(Cl)c(O)cc3O2)NC(=S)N1 (centres undefined)	inconclusive: 13 µM [cytotoxic, partial curve]	–
CCOC(=O)C1=C(COC(=O)COc2ccccc2C=O)NC(=O)NC1C (centres undefined)	inconclusive: 14.6 µM [rising, partial curve, poor fit]	–
CCc1nc2sc(C#N)c(N)c2c2c1CCCC2	inactive	–

Compound	Potency	activity change, negative = cytotoxicity
COC(=O)c1ccc(-n2nnnc2SCC(=O)N2CCCCC2)cc1	active: 20.6 µM	–
O=C(NCC1COc2ccccc2O1)c1ccc(Cl)c(S(=O)(=O)N2CCCC2)c1 (centres undefined)	inconclusive: 14.6 µM [cytotoxic, partial curve]	–
O=C(O)CC/C(=N/NC(=O)c1cccs1)c1ccccc1	inconclusive: 1.16 µM [rising, partial curve, poor fit]	–
CCCc1ccc2oc(C(=O)N3CCNC(=O)C3CC(=O)OC)c(C)c2c1 (centres undefined)	inconclusive: 23.1 µM [cytotoxic, single point]	–
COC(=O)c1c(-c2ccc(Cl)cc2)noc1N1CCN(c2ccc(C)cc2C)CC1	inactive	–
CC(=O)N1CCc2cc(S(=O)(=O)NC(Cc3ccccc3)C(=O)NCCN3CCCCC3C)ccc21 (centres undefined)	inconclusive: 18.4 µM [rising, partial curve, poor fit]	–
Cc1nn(CC(=O)Nc2ccc3c(c2)CCC3)c(C)c1[N+](=O)[O-]	active: 18.4 µM	–
C=CCn1c(SCC(=O)NC2CCCC2)nc2ccccc21	inconclusive: 13 µM [cytotoxic, partial curve, poor fit]	–
CCOC(=O)N1CCN(C(=O)CCn2c(=O)[nH]c3ccsc3c2=O)CC1	inconclusive: 18.4 µM [rising, single point]	–
COc1ccc(-n2nc(C(=O)NCC(=O)N3CCOCC3)c3ccccc3c2=O)cc1Cl	inconclusive: 2.06 µM [cytotoxic, full curve]	–
CCOC(=O)c1cc(-c2csc(-c3cccc(Cl)c3)n2)on1	inconclusive: 5.8 µM [rising, full curve, poor fit]	–
COc1ccc(OCc2cccc(C(=O)NN)c2)cc1	–	inconclusive: -19.1%
O=C(Nc1cc2c3c(c1)CC(=O)N3CCC2)c1ccccc1F	–	inconclusive: 9.95%
COc1ccc(CNCCc2ccccc2)cc1OCC(N)=O	inconclusive: 13 µM [cytotoxic, partial curve, poor fit]	–
CCOc1ccc(S(=O)(=O)Nc2cc(SCC(=O)O)c(O)c3ccccc23)cc1	inconclusive: 29.1 µM [cytotoxic, single point]	–
O=C(Nc1ccccc1)c1nnsc1S(=O)(=O)c1ccc(Cl)cc1	inconclusive: 14.6 µM [cytotoxic, partial curve, poor fit]	–
Cc1ccc(S(=O)(=O)N2CCN(C(=O)c3cc4c(C)nn(-c5ccccc5C)c4s3)CC2)cc1	inconclusive: 2.31 µM [cytotoxic, partial curve, poor fit]	–
COc1ccccc1CC(=O)NCCc1ccccc1	inconclusive: 20.6 µM [rising, single point]	–
CCOC(=O)c1cc(S(=O)(=O)N2CCN(c3ccccc3)CC2)[nH]n1	inactive	–
O=C(CSc1ccc(-c2ccccn2)nn1)NCc1ccc(Cl)cc1	inconclusive: 18.4 µM [cytotoxic, single point]	–
Cc1ccc2c(CN3CCN(S(=O)(=O)c4ccccc4C(F)(F)F)CC3)cc(=O)oc2c1	inactive	–
COc1ccc(CN2C(=NC(=O)C3CCCCC3)SC3CS(=O)(=O)CC32)cc1 (centres undefined)	inactive	–
O=C(Nc1c(Cl)cccc1Cl)c1cc(-c2ccc3c(c2)OCO3)on1	inconclusive: 29.1 µM [rising, single point]	–

One compound at a time, from the list above. Values in the order: Potency	activity change, negative = cytotoxicity
`COc1ccc(CNCCc2ccccc2)cc1OCC(N)=O` as listed: inconclusive: 13 µM [cytotoxic, partial curve, poor fit]	–
`Cc1ccc(S(=O)(=O)N2CCN(C(=O)c3cc4c(C)nn(-c5ccccc5C)c4s3)CC2)cc1` as listed: inconclusive: 2.31 µM [cytotoxic, partial curve, poor fit]	–
